Patent publication US20220363667A1 (Nippon Chemiphar Co., Ltd., priority 2018, published 2022)
Entries after “also recorded” stand apart in the source; their conditions may differ. At least one structure is not confirmed: it was looked up by name or label, or the drawing left a doubt.

System: mouse PSNL model
Assay: Mechanical allodynia in mouse partial sciatic nerve ligation (PSNL) model
Type: in vivo
Details: 30 mg/kg orally administered, compared with the vehicle group
From the text: The production of a mouse PSNL model was achieved according to the method of Seltzer et al. A mouse was subjected to inhalation anesthesia with isoflurane. The femoral region of the mouse was shaved and disinfected with isodine. The skin on a thighbone of the mouse was incised, the fascia directly under the skin was cut, and the muscle heads of the musculus biceps femoris were split. The sciatic nerve directly under the fascia was checked, and then the sciatic nerve was detached so as not to damage the nerve. The needle of a needle with 8-0 silk thread was passed through the sciatic nerve to penetrate therethrough, and the sciatic nerve was ligated for about ½ to ⅓ of the whole nerve. The skin was sutured, and the mouse was raised for about 7 days. […]
The measurement of the pain threshold was carried out after transferring the mice into a cage for measurement and waiting for the exploratory behavior to disappear. Regarding the pain threshold (paw withdrawal filament ((g)), the plantar plates of the mice were stimulated with von Frey filaments (Sttoelting Co.: TOUCH-TEST SENSORY EVLUATOR) having different stimulus intensities, and the presence or absence of an escape response was observed. The 50% threshold was calculated by an up-down method with reference to the method of Chaplan et al. (Quantitative assessment of tactile allodynia in the rat paw. J neurosci Methods, 53, 1994, 55-63). […]

CC(C)c1ccc(CC(=O)N[C@@H]2CCN(c3cncc(C(F)(F)F)c3)C2)cc1 [Example 4, (R)-2-(4-isopropylphenyl)-N-(1-(5-(trifluoromethyl)pyridin-3-yl)pyrrolidin-3-yl)acetamide]
mechanical allodynia (pain threshold, von Frey filament test): inhibited mechanical allodynia statistically significantly; also recorded: suppressed statistically significantly
